Source: PMC12538886
Results are given in words; binding and its absence hold for the method and conditions named. Binding seen in cells or lysates may run through a third protein.

Biological target: T1, ACOX2 (source not told) (UniProt Q99424)
T1 sequence: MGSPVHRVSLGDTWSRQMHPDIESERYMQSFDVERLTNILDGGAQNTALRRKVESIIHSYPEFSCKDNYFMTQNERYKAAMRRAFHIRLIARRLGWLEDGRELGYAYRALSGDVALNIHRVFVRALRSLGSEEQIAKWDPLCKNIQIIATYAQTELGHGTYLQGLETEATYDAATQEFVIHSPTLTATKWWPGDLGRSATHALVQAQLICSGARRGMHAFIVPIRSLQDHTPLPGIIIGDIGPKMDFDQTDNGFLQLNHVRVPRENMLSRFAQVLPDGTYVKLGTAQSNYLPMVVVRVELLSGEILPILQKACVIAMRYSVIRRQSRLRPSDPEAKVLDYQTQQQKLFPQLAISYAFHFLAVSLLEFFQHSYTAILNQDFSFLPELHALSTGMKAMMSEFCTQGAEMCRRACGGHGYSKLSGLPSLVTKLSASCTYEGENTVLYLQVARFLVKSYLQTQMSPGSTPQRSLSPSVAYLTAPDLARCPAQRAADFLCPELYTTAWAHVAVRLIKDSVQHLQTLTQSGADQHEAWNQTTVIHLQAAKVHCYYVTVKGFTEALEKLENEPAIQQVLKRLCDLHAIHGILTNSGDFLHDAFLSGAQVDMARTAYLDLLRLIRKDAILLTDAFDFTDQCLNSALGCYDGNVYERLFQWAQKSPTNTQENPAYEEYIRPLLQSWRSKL
Experiment: co-IP; truncated mutants of ACOX2 with MRE11 (Fig. 3I) and of MRE11 with ACOX2 (Fig. 3K); cells not given

## MRE11 truncated mutant lacking the RAD50-binding region (MD4) (domain or fragment)
  binding: no binding
